Measurements taken from PMC4176178.
No constants are given. Whether binding was seen depends on the method and setting. In cells and extracts the contact can be indirect. Binding can be weak; no strength is given.

Chains of the proteins cited; added tags and fusions are not shown. Lines headed by an entry give the natural chain unless they say otherwise; changes in a name come on top.
UniProt Q9VY91: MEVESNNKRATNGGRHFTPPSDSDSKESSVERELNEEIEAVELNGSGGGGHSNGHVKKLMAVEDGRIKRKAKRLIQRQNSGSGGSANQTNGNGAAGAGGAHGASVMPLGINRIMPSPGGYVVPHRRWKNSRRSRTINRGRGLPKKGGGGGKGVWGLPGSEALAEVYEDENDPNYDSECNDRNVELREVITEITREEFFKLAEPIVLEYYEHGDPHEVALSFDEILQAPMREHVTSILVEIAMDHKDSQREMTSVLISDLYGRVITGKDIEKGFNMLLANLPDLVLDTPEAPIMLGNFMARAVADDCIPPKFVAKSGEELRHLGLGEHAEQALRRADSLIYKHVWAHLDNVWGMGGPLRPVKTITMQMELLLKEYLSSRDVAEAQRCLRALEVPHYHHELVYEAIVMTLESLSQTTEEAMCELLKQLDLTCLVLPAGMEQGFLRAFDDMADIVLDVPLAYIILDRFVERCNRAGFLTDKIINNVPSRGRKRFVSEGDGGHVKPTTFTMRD
UniProt P21187: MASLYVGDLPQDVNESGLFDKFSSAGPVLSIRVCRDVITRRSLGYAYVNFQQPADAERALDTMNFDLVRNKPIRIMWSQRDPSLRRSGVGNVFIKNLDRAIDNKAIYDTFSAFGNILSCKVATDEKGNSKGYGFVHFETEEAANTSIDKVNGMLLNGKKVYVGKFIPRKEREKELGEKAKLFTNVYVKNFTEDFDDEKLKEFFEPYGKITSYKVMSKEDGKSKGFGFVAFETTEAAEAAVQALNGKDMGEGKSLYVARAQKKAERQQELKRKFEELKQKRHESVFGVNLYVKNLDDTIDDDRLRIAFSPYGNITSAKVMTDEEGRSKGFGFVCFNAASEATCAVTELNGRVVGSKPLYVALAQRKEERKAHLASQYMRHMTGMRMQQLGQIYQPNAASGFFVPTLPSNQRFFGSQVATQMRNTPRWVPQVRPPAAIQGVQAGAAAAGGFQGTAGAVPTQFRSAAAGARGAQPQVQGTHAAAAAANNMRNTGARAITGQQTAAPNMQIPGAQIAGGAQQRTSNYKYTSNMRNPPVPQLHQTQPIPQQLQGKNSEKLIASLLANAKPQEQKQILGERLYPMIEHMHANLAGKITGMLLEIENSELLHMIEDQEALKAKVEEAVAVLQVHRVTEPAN

Target: GST-DmPdcd4 (Drosophila melanogaster Pdcd4 GST fusion protein) (Drosophila melanogaster) (UniProt Q9VY91)
Experiment: pull-down; GST proteins immobilised on glutathione sepharose, incubated with extract from Drosophila Schneider S2 cells; western blotting with antibodies against Drosophila PABP; also in the absence or presence of 0.5 μg/ml RNase A; only the target purified

- binding: binds
Substance: Drosophila PABP (endogenous, Schneider S2 cell extract) (from UniProt P21187 1-634)
